Screening data, single-dose tests

Sequences of proteins named here, by UniProt entry; tags and fusion partners are left off.
UniProt P9WFT3, whole entry: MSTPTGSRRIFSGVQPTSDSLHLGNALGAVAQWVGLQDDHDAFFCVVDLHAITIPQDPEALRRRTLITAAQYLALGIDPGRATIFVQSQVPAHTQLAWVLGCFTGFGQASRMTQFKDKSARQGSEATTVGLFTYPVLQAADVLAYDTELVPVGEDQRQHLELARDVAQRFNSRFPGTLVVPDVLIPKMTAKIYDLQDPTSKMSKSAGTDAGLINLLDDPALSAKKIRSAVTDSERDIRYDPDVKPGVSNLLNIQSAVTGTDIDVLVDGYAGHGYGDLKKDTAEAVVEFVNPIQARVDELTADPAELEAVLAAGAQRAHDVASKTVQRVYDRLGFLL
UniProt P9WPC5, whole entry: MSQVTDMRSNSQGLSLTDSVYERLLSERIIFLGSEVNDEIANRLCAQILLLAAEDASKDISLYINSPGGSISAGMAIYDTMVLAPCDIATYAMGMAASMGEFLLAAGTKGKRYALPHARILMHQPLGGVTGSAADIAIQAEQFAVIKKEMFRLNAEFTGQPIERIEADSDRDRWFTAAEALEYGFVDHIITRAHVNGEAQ
UniProt P9WPC3, whole entry partner: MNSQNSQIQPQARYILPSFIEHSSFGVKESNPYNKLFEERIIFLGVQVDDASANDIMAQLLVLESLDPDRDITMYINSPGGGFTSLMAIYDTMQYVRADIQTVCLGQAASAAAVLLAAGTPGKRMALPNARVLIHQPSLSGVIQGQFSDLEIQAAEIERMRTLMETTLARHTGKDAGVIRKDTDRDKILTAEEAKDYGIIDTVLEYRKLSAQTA
UniProt P9WNZ1, whole entry: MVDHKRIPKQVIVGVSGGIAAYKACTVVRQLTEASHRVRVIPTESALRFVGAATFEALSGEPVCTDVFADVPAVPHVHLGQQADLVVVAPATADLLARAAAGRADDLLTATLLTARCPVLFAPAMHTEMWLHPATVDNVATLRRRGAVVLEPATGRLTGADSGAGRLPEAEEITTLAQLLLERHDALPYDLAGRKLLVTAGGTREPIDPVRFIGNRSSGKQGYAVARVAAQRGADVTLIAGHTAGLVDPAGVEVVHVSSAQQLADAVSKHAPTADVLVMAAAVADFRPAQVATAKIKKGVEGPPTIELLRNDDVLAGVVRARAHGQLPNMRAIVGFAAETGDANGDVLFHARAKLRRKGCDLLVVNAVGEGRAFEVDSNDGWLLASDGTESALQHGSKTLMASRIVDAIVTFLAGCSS
UniProt I6X8D2, whole entry: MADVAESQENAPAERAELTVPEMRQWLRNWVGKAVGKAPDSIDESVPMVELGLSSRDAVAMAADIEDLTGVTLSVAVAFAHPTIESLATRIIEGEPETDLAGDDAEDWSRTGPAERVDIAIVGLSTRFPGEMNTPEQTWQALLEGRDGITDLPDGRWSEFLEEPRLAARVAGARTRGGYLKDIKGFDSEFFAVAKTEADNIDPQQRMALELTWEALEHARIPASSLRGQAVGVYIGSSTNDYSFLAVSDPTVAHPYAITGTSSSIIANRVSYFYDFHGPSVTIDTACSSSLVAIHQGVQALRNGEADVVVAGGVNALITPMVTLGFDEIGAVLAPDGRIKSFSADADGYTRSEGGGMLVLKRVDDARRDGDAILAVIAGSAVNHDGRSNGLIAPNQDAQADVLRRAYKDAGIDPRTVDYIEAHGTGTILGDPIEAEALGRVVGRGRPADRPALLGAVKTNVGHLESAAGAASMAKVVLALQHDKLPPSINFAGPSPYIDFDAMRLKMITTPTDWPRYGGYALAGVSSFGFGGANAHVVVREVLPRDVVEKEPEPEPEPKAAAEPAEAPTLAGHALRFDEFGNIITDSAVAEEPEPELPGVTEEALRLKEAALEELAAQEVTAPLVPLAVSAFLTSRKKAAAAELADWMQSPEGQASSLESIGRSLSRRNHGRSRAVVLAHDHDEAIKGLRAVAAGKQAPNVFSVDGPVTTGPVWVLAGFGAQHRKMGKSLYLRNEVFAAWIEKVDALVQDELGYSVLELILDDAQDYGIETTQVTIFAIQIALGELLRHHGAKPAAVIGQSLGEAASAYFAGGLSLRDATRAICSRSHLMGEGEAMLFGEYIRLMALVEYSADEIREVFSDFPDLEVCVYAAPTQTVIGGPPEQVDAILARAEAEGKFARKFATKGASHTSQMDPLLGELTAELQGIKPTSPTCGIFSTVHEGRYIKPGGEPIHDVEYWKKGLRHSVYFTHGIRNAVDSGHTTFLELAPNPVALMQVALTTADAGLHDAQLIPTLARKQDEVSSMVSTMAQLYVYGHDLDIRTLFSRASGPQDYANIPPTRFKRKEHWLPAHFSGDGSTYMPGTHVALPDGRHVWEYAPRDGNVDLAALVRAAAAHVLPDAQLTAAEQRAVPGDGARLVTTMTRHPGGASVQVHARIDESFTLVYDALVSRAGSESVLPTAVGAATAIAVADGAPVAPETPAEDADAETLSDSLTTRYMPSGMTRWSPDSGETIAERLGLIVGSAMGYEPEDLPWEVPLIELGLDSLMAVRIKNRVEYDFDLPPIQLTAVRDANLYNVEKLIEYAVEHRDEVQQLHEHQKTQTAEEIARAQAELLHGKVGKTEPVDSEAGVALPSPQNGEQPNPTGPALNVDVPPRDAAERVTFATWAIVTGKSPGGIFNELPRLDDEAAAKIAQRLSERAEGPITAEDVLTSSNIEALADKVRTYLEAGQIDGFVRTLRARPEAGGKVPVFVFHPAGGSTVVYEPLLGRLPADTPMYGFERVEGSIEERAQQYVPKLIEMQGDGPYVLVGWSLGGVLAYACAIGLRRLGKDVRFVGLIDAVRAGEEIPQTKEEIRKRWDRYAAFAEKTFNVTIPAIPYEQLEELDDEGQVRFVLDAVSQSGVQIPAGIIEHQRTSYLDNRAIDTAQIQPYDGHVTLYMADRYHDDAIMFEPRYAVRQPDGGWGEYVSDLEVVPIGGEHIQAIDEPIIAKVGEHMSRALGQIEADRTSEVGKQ

The filed quantity is “Percent Effect” (%). The controls that fix the scale are not given in the record; negative values are as filed. This is an unselected part of the compounds tested.

MtTrpRS: 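Enzyme assay of tryptophanyl-tRNA synthetase; the read-out is not stated. Target: Tryptophan-tRNA ligase, Mycobacterium tuberculosis (UniProt P9WFT3). Compounds at 10 µM. Direction is not recorded; retested compounds ran higher, which suggests that high means inhibition. Of about 65,000 compounds tested this way, about 64 (0.098%) reached 50% or more in at least one test.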
Toxoplasma: 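Assay of Toxoplasma gondii numbers, read through their beta-galactosidase reporter with a colour substrate. Tested at 10 µM. The record gives no direction; the compounds picked for IC50 retests had high values, so higher reads as fewer parasites. Size under these conditions: about 67,000 compounds, about 260 of them at 50% or above in at least one test.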
ClpP1P2: 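ClpP1P2, Mycobacterium tuberculosis (UniProt P9WPC5 and UniProt P9WPC3). Protease assay of ClpP1P2, read by the AMC dye that it sets free. Concentration: 50 µM. Direction is inferred from only a few compounds that gave an IC50; most scored high, so higher reads as stronger inhibition. Most other retested compounds had strongly negative values. Of about 69,000 compounds tested this way, about 10 (0.015%) reached 50% or more in at least one test.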
CoaBC: 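Enzyme assay of CoaBC with a phosphate dye (Biomol Green) read at 650 nm. Target: Coenzyme A biosynthesis protein CoaBC, Mycobacterium tuberculosis (UniProt P9WNZ1). Tested at 30 µM. Direction is inferred from only a few compounds that gave an IC50; most scored high, so higher reads as stronger inhibition. Most strong results did not repeat in a second test. Of about 67,000 compounds tested this way, about 40 (0.06%) reached 50% or more in at least one test.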
Pks13 thioesterase: 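Polyketide synthase Pks13, Mycobacterium tuberculosis (UniProt I6X8D2). Enzyme assay of the thioesterase domain of polyketide synthase 13; the read-out is not stated. Tested at 30 µM. The record gives no direction; the compounds picked for IC50 retests had high values, so higher reads as stronger inhibition. Size under these conditions: about 67,000 compounds, about 300 of them at 50% or above in at least one test.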

Cn1ncc2c1CN(C(=O)Cc1ccccn1)CC2COCC1CC1 (stereo not shown) read MtTrpRS: -4.17%; ClpP1P2: -6.993%; CoaBC: 2.101%; Pks13 thioesterase: 0.7361%. O=C(NC1CC1)N1CCC2(CC1)C(=O)NCCN2Cc1ccccc1.O=C(O)C(F)(F)F gave Toxoplasma: 4.793%. For CN(C)c1nccc(C2CN(c3ccccc3)CCO2)n1 (stereo not shown) the result was MtTrpRS: -5.657%; Toxoplasma: -16.77%; ClpP1P2: -24.07%; CoaBC: -4.566%; Pks13 thioesterase: -2.993%. With CC(C)CCC(=O)N1CC[C@@H]2[C@H](CC1)N(S(C)(=O)=O)CCS2(=O)=O the screen gave MtTrpRS: -6.965%; ClpP1P2: 5.403%; CoaBC: 3.294%; Pks13 thioesterase: -17.65%. For NC(=O)C1CN(C(=O)NCC2(c3ccc(F)cc3)CCC2)CCO1 (stereo not shown) the result was MtTrpRS: -3.936%; Toxoplasma: 8.083%; ClpP1P2: -6.025%; CoaBC: 0.6483%; Pks13 thioesterase: 10.13%. Result for O=C(NCCc1ccco1)Nc1cc(C(F)(F)F)c[nH]c1=O was MtTrpRS: -1.935%; Toxoplasma: -2.584%; ClpP1P2: -15.7%; CoaBC: 6.102%; Pks13 thioesterase: -24.2%.

With CC(=O)N1CCc2cc(C(=O)O)c(-c3ccsc3)nc2CC1.O=C(O)C(F)(F)F the screen gave Toxoplasma: 2.427%. O=C(C[C@@H]1COC[C@H]2CN(CC3CC3)C[C@@H]12)N1CCCCO1 read MtTrpRS: 3.427%; ClpP1P2: 16.2%; CoaBC: 2.24%; Pks13 thioesterase: -32.54%. For Cc1c(NC(C)C(C)C)cccc1C(=O)NCc1nccn1C (stereo not shown) the result was MtTrpRS: 0.3112%; Toxoplasma: -1.658%; ClpP1P2: 2.88%; CoaBC: 10.81%; Pks13 thioesterase: -10.58%. [H][C@@]12COC[C@@H](C(=O)N3CCCO3)[C@]1([H])CN(Cc1c(C)noc1C)C2 gave Toxoplasma: -17.7%. Result for O=C(CN1CCCCC1Cn1cncn1)NCCc1ccc(F)cc1 (stereo not shown) was MtTrpRS: -0.8655%; ClpP1P2: 8.826%; CoaBC: 0.7712%; Pks13 thioesterase: -17.12%. CCC[C@H]1CN(CCS(C)(=O)=O)C[C@@H]1NC(=O)c1cc(CC)on1 gave MtTrpRS: 3.183%; Toxoplasma: -13.66%; ClpP1P2: -10.84%; CoaBC: 15.16%; Pks13 thioesterase: -3.31%.

For Cn1c(C(F)(F)F)nn(CCNC(=O)c2ccccn2)c1=O the result was MtTrpRS: 0.000007%; Toxoplasma: 4.389%; ClpP1P2: -3.717%; CoaBC: -0.3745%; Pks13 thioesterase: -30.31%. Cn1cc(NC(=O)NCc2ccsc2)ccc1=O read MtTrpRS: 6.089%; Toxoplasma: 1.789%; ClpP1P2: 2.954%; Pks13 thioesterase: -31.38%. Cc1nc(C)n(CC2CCCN(CC(=O)Nc3ccncc3)C2)n1 (stereo not shown) gave MtTrpRS: -6.656%; Toxoplasma: -20.63%; ClpP1P2: -32.4%; CoaBC: 7.417%; Pks13 thioesterase: -33.44%. Cc1[nH]ccc1C(=O)N1CCCC(c2nccn2Cc2cscn2)C1 (stereo not shown) read MtTrpRS: 2.924%; Toxoplasma: 7.537%; ClpP1P2: -11.71%; CoaBC: 12.28%; Pks13 thioesterase: -9.237%. CN(Cc1ccco1)[C@@H]1CN(C(=O)c2cnccn2)C[C@@H]2CCCO[C@@H]21 read MtTrpRS: -4.054%; ClpP1P2: -9.501%; CoaBC: -3.083%; Pks13 thioesterase: -18.28%. Result for Clc1ccc2nncc(N3CCCCC3)c2c1 was MtTrpRS: -4.063%; Toxoplasma: 11.22%; ClpP1P2: 6.892%; CoaBC: 5.295%; Pks13 thioesterase: -13.05%.

With Cn1cc(C(=O)NC2CCN(C(=O)NCCSC(F)(F)F)CC2)cn1 the screen gave MtTrpRS: -0.8772%; Toxoplasma: -0.9561%; ClpP1P2: 5.241%; CoaBC: 6.527%. With CNc1nc2c(c(C(=O)N3CCCC3)n1)CN(C(=O)CCSC)CC2 the screen gave MtTrpRS: 2.768%; Toxoplasma: -26.27%; ClpP1P2: -5.468%; CoaBC: 9.532%; Pks13 thioesterase: -4.632%. CC(=O)Nc1ncc(S(=O)(=O)Nc2ccccc2F)s1 read MtTrpRS: -0.5181%; Toxoplasma: 61.48%; ClpP1P2: 2.927%; CoaBC: 15.01%; Pks13 thioesterase: -16.43%. With CN(C)CCOCC1CN(C(=O)c2ccsc2)Cc2ccnn2C1 (stereo not shown) the screen gave MtTrpRS: -0.4882%; ClpP1P2: -9.805%; CoaBC: 2.28%; Pks13 thioesterase: -23.71%. With O=C(O)C(F)(F)F.O=C1N(Cc2cccc(F)c2)CCC12CCN(c1ccccn1)CC2 the screen gave Toxoplasma: -20.01%.

For reference, 2 entries once more:

* O=C(CN1CCCCC1Cn1cncn1)NCCc1ccc(F)cc1 (stereo not shown) : MtTrpRS: -0.8655%; ClpP1P2: 8.826%; CoaBC: 0.7712%; Pks13 thioesterase: -17.12%
* O=C(NC1CC1)N1CCC2(CC1)C(=O)NCCN2Cc1ccccc1.O=C(O)C(F)(F)F : Toxoplasma: 4.793%

The values are deposited in ChEMBL (CHEMBL3988442, “University of Dundee, Small-Polar-MMV Screening Library” (2021)).